# The campaign covered roughly 52,000 sequences. About 210 (0.4%) were called active.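 How the source made its calls: active means gene whose silencing raises cell survival under the drug, median off-target-corrected z-score across its silencing RNAs 2 or more; inactive means the rest.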 The list shows a part of the results.
# Assay: Resistance to Poly (ADP-Ribose) Polymerase inhibitor: Gene Identification via Genome-wide siRNA Screen
# Details: mouse BRCA2 R2336H ES cells, olaparib, CellTiter-Glo viability; hits give high values
# Summary of the method: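 Mouse BRCA2 R2336H ES cells were reverse-transfected with siRNA (20 nM final), treated at 48 h with 500 nM olaparib, and read by CellTiter-Glo after 72 h. Scores: MAD-based z per siRNA, median per gene, seed off-target correction.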
row,Sequence,z-score
1,GGAGCAGUGGGAAAUUCCATT against Narg2,inactive: -1.23
2,GGAAGCUUACAUUGUGAAGTT against Unc5c,inactive: 0.265
3,GGAGAGGACAAAUUAAAGATT against Ywhae,inactive: 1.7
4,GCAUGCGUGAGAAACUGAUTT against Clra,inactive: -1.62
5,GGUAUUAAGUAGGUGUUAATT against Sec22l3,inactive: -0.268
6,GGCAUUCAAGGAUAUGCUGTT against Xpr1,inactive: -0.759
7,GGGACCCUUCUACAAAAACTT against Pias3,active: 2.3
8,UAUUUAUCCACUACUGGAATT against Olfr969,inactive: -0.954
9,GCAGAUGAUACGCAUGCAGTT against 1810060J02Rik,inactive: -0.771
10,GGUGCUGAAGAUGACAUCCTT against A930041I02Rik,inactive: 1.3
11,GGACAACUCGAGUCUUAAATT against Poln,inactive: -2.2
12,GGUUUAACAACUUACUUUCTT against Dmgdh,inactive: 0.0843
13,CGCAUCAUCAAUGAUGACCTT against Crmp1,inactive: 0.654
14,GCCAUUAGUGUGGAGUACUTT against Mrgprb8,inactive: -1.06
15,CGUGGAAGGCAAGAUGCAUTT against Tmem55b,inactive: 0.272
16,GCCUGAACUUUGACAGAACTT against Cxcr3,inactive: -0.0574
17,GGUUACAGAGCAAAGUCCUTT against Zfml,inactive: -0.00597
18,CCCGGAGUGGAAUUUACAGTT against Llglh,inactive: -1.46
19,CCUUACCGCCUUAAACUGATT against Mylip,inactive: 0.998
20,GGAUAGAGAUGGUUGUCCATT against Phf5a,inactive: -2.97
21,GGAAGAGAAGAUUUUGGAUTT against Il1f9,inactive: 0.411
22,GGAAGGAAAUAAAAAGGGATT against Pcdhb20,inactive: 1.07
23,GGAAAAUGUGAAACAGCUATT against Dhx40,inactive: 0.452
24,GGGUUUCUGUUAAUCCACATT against Hist1h3g,inactive: -1.25
25,GGGAAAAACACCAUUUCCUTT against Olfr275,inactive: 0.114
26,GGUAGAGGUUAUAUAGGCATT against Ms4a11,inactive: -0.137

row,Sequence,z-score
1,GGAAUUUCAAGACAAAGGUTT against Scap2,inactive: -1.11
2,GCAUUUGAAAUGCUACAGCTT against Rhoq,inactive: 0.865
3,CCGUAUAUUGACCUAAUGGTT against Ppp2ca,inactive: -0.56
4,GGCAUAAACUACAUUUGAUTT against Edg3,inactive: -0.282
5,GGAAAAUUUACACUGACCUTT against Ian3,inactive: 0.443
6,GGGAAGAACAAAUGGUUUUTT against Rpl27,inactive: -3.04
7,GCUGCAUGUUACCUACUUGTT against Pold3,inactive: -0.566
8,GCUGCUCGUUAAAGCCGGATT against Ankrd6,inactive: -0.994
9,CCUUUACACGUAAAAGAAGTT against AW610627,inactive: 0.692
10,GGGACUUCAUCCGUCAAAATT against Dnajd1,inactive: -0.799
11,CGUGAGCACAAAAAUAUUGTT against Fchsd2,inactive: 2.03
12,GGCUCCAACCAACAUUGUUTT against Rpa2,inactive: -3.39
13,GUGUCAUCAUGCCCAAAAUTT against Olfr957,inactive: -1.68
14,GGCCAGACCCGAACUUUGATT against Rnf2,inactive: -2.14
15,GCAGUGAAUGGACUCGAGATT against Pax1,inactive: -0.272
16,GCUUAUGAGUUCAGUUGUGTT against Olfr143,inactive: -0.262
17,GGCUUUAAGCUGGUGAUGGTT against Hmox1,inactive: 0.194
18,GCUUGUCCAAGUUAGGCGATT against Calm4,inactive: -0.137
19,GCAUGUAGUGGAGAAAUGCTT against Bat9,inactive: -0.283
20,GUGUCCAGUCCUAAAACGATT against Trib3,inactive: -0.439
21,GGACCACUUGUAGUAUUUGTT against BC019977,inactive: 0.129
22,GCUUGAAUGGAGCGAAUCGTT against Chat,inactive: 0.489
23,GGGACCAGAACAAGGUAGUTT against Olfr488,inactive: 2.04
24,CGUGGUAUGGUAAUGAUACTT against Scn4a,inactive: 0.415
25,CCAUUGAUCUCAUCAACCCTT against 5730511K23Rik,inactive: -2.02
26,GGCUUUUAGCCAGAAAGAATT against Zfp260,inactive: 0.5

# Some of the entries so far, with tabs:
row	Sequence	z-score
7	GGGACCCUUCUACAAAAACTT against Pias3	active: 2.3
10	GGUGCUGAAGAUGACAUCCTT against A930041I02Rik	inactive: 1.3
16	GCCUGAACUUUGACAGAACTT against Cxcr3	inactive: -0.0574
